Assay results as given in PubChem BioAssay AID1347076 (National Center for Advancing Translational Sciences (NCATS), 2019).
Hit rate of the full screen: of about 400,000 compounds, about 13,000 (3.2%) were called active. Inconclusive means that the source gave no clear call. Such entries were picked first, then a sample of the others. Calls follow the shape of the dose curve; as a rule, active = well fitted cell-killing curve with a large enough effect; inconclusive = small, poorly fitted or top-dose-only effect, or effect the other way; inactive = flat fitted curve, though single readings scatter. Potencies of inconclusive entries are doubtful fits and often do not repeat. Where a structure was tested more than once in an assay, its records may differ in their call.

Experiment: qHTS assay for MDR1-selective chemotherapeutics: Primary screen using the drug-selected MDR subline cells KB-V1; also: nearly all actives have a fitted effect of over 60% in size
Conditions: KB-V1 MDR cells viability, CellTiter-Glo, 72 h; activity change, negative = cytotoxicity: at 46.1 µM (top of the series)
How it was run: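 qHTS viability screen in drug-selected KB-V1 MDR cells: 72 h compound treatment at 37 degrees C, ATP luminescence end point.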
% is scaled to controls: 0 for no effect and ±100 for the full control effect; potency is read from the fitted curve at half-maximal effect.

Structure (SMILES) | Potency | activity change, negative = cytotoxicity
CCOc1ccc(CN2CCN(c3ncnc4sc5c(c34)CC(C)CC5)CC2)cc1 (stereo not given) | inconclusive: 20.6 µM [cytotoxic, single point] | –
O=C1NC(c2ccccc2Cl)Nc2ccccc21 (stereo not given) | inconclusive: 18.4 µM [cytotoxic, single point] | –
C/C(=C/C=N/Nc1nc(N2CCCCC2)nc(N2CCCCC2)n1)c1ccccc1 | – | inactive: -13.5%
CCOc1ccc(N/C=C/C(=O)c2ccc3ccccc3c2)c([N+](=O)[O-])c1 | inconclusive: 4.61 µM [cytotoxic, partial curve] | –
Cc1ccc(CNC(=O)C2CCN(S(=O)(=O)c3ccc4c(c3)CCCN4C(=O)C3CCC3)CC2)cc1 | inconclusive: 11.6 µM [cytotoxic, partial curve, poor fit] | –
CCn1c(-c2ccccc2)c(C(=O)CCl)c2ccccc21 | inconclusive: 29.1 µM [cytotoxic, single point] | –
COc1cc(/C=C2\SC(=O)N(CCNC(=O)c3cnc(C)cn3)C2=O)cc(OC)c1OC | inconclusive: 8.2 µM [cytotoxic, partial curve] | –
CCOc1ccc2c(c1)c(=O)c(S(=O)(=O)c1ccccc1)cn2CC(=O)Nc1ccccc1OC | inconclusive: 23.1 µM [rising, partial curve, poor fit] | –
COc1ccc(C(=O)Nc2ccc(N3CCCC3)cc2)cc1OC | – | inactive: -34.7%
C=CCN=C1NN=C(c2cc(C)n(CCOC)c2C)CS1 | – | inactive: 14.9%
COc1ccc(C2CC(c3cccs3)=NN2C(=O)CSc2nncn2C)cc1OC (stereo not given) | inconclusive: 18.4 µM [rising, single point] | –
COc1ccc(C(=O)N2CCN(Cc3ccc4c(c3)OCO4)CC2)cc1OC | – | inactive: -21.8%
CC(=O)C(C(c1ccccc1)N1CCOCC1)N1CCOCC1 (stereo not given) | – | inactive: -4.16%
CC(=O)c1c2c3c(c(Br)ccc3n(C)c1=O)C(=O)c1ccccc1-2 | inconclusive: 29.1 µM [cytotoxic, single point] | –
O=C1C(N2CCOCC2)=Cc2cccc3cccc1c23 | active: 16.4 µM | –
O=C(CSc1nc(=O)n2ccccc2n1)N1N=C(c2cccs2)CC1c1ccc(F)cc1 (stereo not given) | inconclusive: 20.6 µM [cytotoxic, partial curve] | –
CC1=C/C(=N\NC(=S)NCc2ccccc2)CC1 | inconclusive: 25.9 µM [cytotoxic, partial curve] | –
O=C(Nc1ccncc1)C1CCN(S(=O)(=O)c2ccc(Cl)c(C(F)(F)F)c2)CC1 | inconclusive: 32.6 µM [cytotoxic, single point] | –
O=C(Cc1cccc2ccccc12)NC(=S)Nc1cccc(C(=O)O)c1 | – | inactive: 4.59%
O=C(NCCSc1c(-c2ccccc2)[nH]c2ccccc12)c1ccc(S(=O)(=O)N2CCOCC2)cc1 | – | inactive: 2.36%
CC(=O)NC1CCCC1C#N (stereo not given) | – | inactive: 24.5%
Cc1nc(-c2ccccc2)sc1CCNS(=O)(=O)c1ccccc1 | inconclusive: 11.6 µM [cytotoxic, partial curve] | –
Cc1ccc(S(=O)(=O)Cn2nnnc2C(C)N2CCN(C(=O)c3ccco3)CC2)cc1 (stereo not given) | – | inactive: -18.9%
NC1=NC2(CCCCC2)N=C(Nc2ccc(Br)cc2)N1 | – | inactive: 13.1%

Structure (SMILES) | Potency | activity change, negative = cytotoxicity
CCCOc1ccc(N2CC(C(=O)Nc3ccccc3C(=O)NCc3ccco3)CC2=O)cc1 (stereo not given) | – | inactive: -25.1%
CCN1C(=O)/C(=C/c2ccc(C)o2)N(C)C1=S | inconclusive: 18.4 µM [cytotoxic, single point] | –
O=C1c2ccccc2NC(c2ccc3c(c2)OCO3)N1O (stereo not given) | inconclusive: 23.1 µM [cytotoxic, single point] | –
Cc1ccc(N(Cc2cccs2)C(=O)COc2cccc(C)c2)cc1 | inconclusive: 16.4 µM [cytotoxic, partial curve, poor fit] | –
COc1ccc(/C=C/C(=O)c2ccc(O)cc2)cc1 | inconclusive: 20.6 µM [cytotoxic, single point] | –
COc1ccccc1[C@H]1C(c2cccc(C)c2)=NN(c2ccccc2)[C@@H]1CO | – | inactive: 0.0002%
COc1ccc(/C=C2\CCCC3C2=NN(C(=O)c2scnc2C)C3c2ccc(OC)c(OC)c2)cc1OC (stereo not given) | – | inactive: 15.4%
CCc1ccc(-c2csc(NC(=O)c3cccnc3)n2)cc1 | – | inactive: -23.2%
Cc1onc(-c2ccccc2Cl)c1C(=O)Nc1ccccc1 | – | inactive: -23.1%
Cc1ccc(C(=O)NCCn2ccc3ccccc32)cc1[N+](=O)[O-] | inconclusive: 25.9 µM [cytotoxic, single point] | –
O=C(N=NC(=O)c1ccc2c(O)n(CC3CCCO3)c(O)c2c1)c1cccnc1 (stereo not given) | – | inactive: 0%
Cc1ccc(S(=O)(=O)N2CCN(C(=O)CCC(=O)NC3CCCc4ccccc43)CC2)cc1 (stereo not given) | active: 23.1 µM | –
CCOc1ccc(C2/C(=C(\O)c3ccc4c(c3)OCCO4)C(=O)C(=O)N2CCN2CCOCC2)cc1OCC (stereo not given) | inconclusive: 16.4 µM [rising, partial curve, poor fit] | –
C[C@@H]1CCCCO[C@@H](CN(C)S(=O)(=O)c2cccs2)[C@@H](C)CN([C@H](C)CO)C(=O)c2cc(NS(=O)(=O)c3ccccc3)ccc2O1 | – | inactive: -19.7%
CCCCCCCCN1[C@@H](CC(=O)OCC)c2cc(F)ccc2S1(=O)=O | active: 14.6 µM | –
O=C(Nc1ccn(Cc2ccccc2)n1)c1cccc(Cn2cc([N+](=O)[O-])cn2)c1 | – | inactive: -3.48%
COc1ccc(C2C(C#N)=C(SCC(=O)Nc3ccc(C)cc3)NC3=C2C(=O)CC(C)(C)C3)cc1 (stereo not given) | inconclusive: 23.1 µM [cytotoxic, partial curve] | –
Cc1ccc(OCC(O)Cn2c(=N)n(CCN3CCCCC3)c3ccccc32)cc1 (stereo not given) | active: 23.1 µM | –
Cc1ccc(-n2ncc(C(=O)NCCCN3CCCCC3)c2C2CCN(C(=O)OC(C)(C)C)CC2)cc1 | – | inactive: 11.5%
CC1(C)CC(=O)C2=C(C1)Oc1ncn(Cc3ccco3)c(=N)c1C2c1ccccc1 (stereo not given) | inconclusive: 0.326 µM [cytotoxic, full curve, poor fit] | –
O=C(/C=C/c1ccccc1)NC(=S)Nc1ccc(N2CCOCC2)c(Cl)c1 | – | inactive: -29.2%
O=c1c(C(c2ccccc2)c2c(O)nc3n(c2=O)CCCS3)c(O)nc2n1CCCS2 | inconclusive: 29.1 µM [rising, single point] | –
O=C(c1ccc(F)cc1Cl)N1CCN(S(=O)(=O)c2cccs2)CC1 | inconclusive: 29.1 µM [cytotoxic, single point] | –
COc1cc(CNCCc2ccccc2F)ccc1OCc1ccc(Cl)nc1 | inconclusive: 23.1 µM [cytotoxic, partial curve, poor fit] | –

Compounds listed so far that contain a cyano group, in the order listed:
Structure (SMILES) | Potency | activity change, negative = cytotoxicity
CC(=O)NC1CCCC1C#N (stereo not given) | – | inactive: 24.5%
COc1ccc(C2C(C#N)=C(SCC(=O)Nc3ccc(C)cc3)NC3=C2C(=O)CC(C)(C)C3)cc1 (stereo not given) | inconclusive: 23.1 µM [cytotoxic, partial curve] | –

The results go on:

Structure (SMILES) | Potency | activity change, negative = cytotoxicity
CC1(C(=O)NCc2cccc(C(F)(F)F)c2)CCN1Cc1cc2ccccc2o1 (stereo not given) | – | inactive: -8.3%
CC(CCc1ccccc1)NC(=O)CN1CCN(Cc2ccccc2)C1=O (stereo not given) | inconclusive: 16.4 µM [cytotoxic, partial curve, poor fit] | –
CCOC(=O)c1c(C)n(-c2ccccc2)c2ccc(OC(=O)c3ccccc3NC(=O)C(C)(C)C)cc12 | inconclusive: 29.1 µM [cytotoxic, single point] | –
CCc1noc(C)c1C(=O)NCCN1C(=O)S/C(=C\c2ccc(OC)cc2)C1=O | – | inactive: -1.86%
CCOc1ccc(NC(=O)/C(C=Nc2ccccc2)=C(\C)O)cc1 | inconclusive: 29.1 µM [cytotoxic, single point] | –
CC(=O)Nc1cc(C(F)(F)F)ccc1Oc1cccc(Br)c1 | – | inactive: -26.2%
CC1=C(C#N)C(/C=N/OCc2ccc(F)cc2Cl)CC(=O)N1 (stereo not given) | inconclusive: 16.4 µM [cytotoxic, single point] | –
N=c1n(CCN2CCCCC2)c2ccccc2n1CC(O)c1cccc(Br)c1 (stereo not given) | inconclusive: 29.1 µM [cytotoxic, single point] | –
COCCNC(=O)[C@@H]1CCCN1S(=O)(=O)c1cccc2cccnc12 | inconclusive: 29.1 µM [rising, single point] | –
CCOC(=O)c1cnc2ccc(OCC)cc2c1N1CCN(c2ccccc2OC)CC1 | inconclusive: 10.3 µM [cytotoxic, partial curve, poor fit] | –
O=C(Nc1ccc(OCc2ccccc2)cc1)Nc1nnc([C@@H]2C[C@H](O)[C@@H](CO)O2)s1 | – | inactive: 11.6%
CCCc1cc(=O)[nH]c(SCC(=O)N2CCC(C(=O)OCC)CC2)n1 | inconclusive: 18.4 µM [rising, partial curve, poor fit] | –
CC(OC(=O)c1cc(S(=O)(=O)N2CCOCC2)ccc1F)C(=O)NC1CCCCC1C (stereo not given) | – | inactive: -20.2%
CCOC(=O)Cn1nnnc1CN(Cc1ccc(OC)cc1)Cc1cc2cc(CC)ccc2[nH]c1=O | – | inactive: 4.07%
Cc1cc(=O)n(CC(=O)Nc2cc(Cl)ccc2C)c(C(C)C)n1 | inconclusive: 20.6 µM [cytotoxic, single point] | –
CCCN1Cc2cccc(C(=O)Nc3cc(OC)cc(OC)c3)c2C1=O | inconclusive: 2.06 µM [cytotoxic, partial curve, poor fit] | –
CCOc1ccc(CCNC(=O)CSc2cc(=O)n(C)c3ccc(Cl)cc23)cc1OCC | inconclusive: 23.1 µM [cytotoxic, single point] | –
C=CCN(CC=C)S(=O)(=O)c1ccc2nc(NC(=O)C3CCCO3)sc2c1 (stereo not given) | active: 8.2 µM | –
CCCCN1C(=O)C(CC(=O)NCc2cccc3ccccc23)CC(C(=O)N(C)C)=C1C (stereo not given) | inconclusive: 20.6 µM [cytotoxic, partial curve, poor fit] | –
c1ccc(C2CN3CCSC3=N2)cc1 (stereo not given) | – | inactive: -9.04%
CC1(C)CSC(=NCCc2ccccc2)N1C(=O)c1ccc(C#N)cc1 | inconclusive: 23.1 µM [cytotoxic, partial curve, poor fit] | –
CCN(CC(=O)Nc1c(F)cccc1F)C(=O)c1ccc(-c2ccccc2)cc1 | inconclusive: 10.3 µM [cytotoxic, partial curve] | –
